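Automated imaging counts how many cells remain in each sample during a screen for green-channel autofluorescence; the cell line is not named here, and timing is not stated here. The number is the count of cells detected; a lower count means more cells were lost, which is the stronger effect (inferred).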

Values are in cells. Common to all entries: at 10 µM. This is a side read-out of the assay, for part of the compounds, not drawn at random.

compound,cell count (cells)
CC1CC(C)(C)Nc2ccc(N=O)cc21 (stereo not shown),321
CCOC(=O)C1=C(C)NC(=O)NC1c1ccc(N2CCC(c3ccccc3)=N2)cc1 (stereo not shown),2409
CN1/C(=C\C=C(/C#N)C(=O)Nc2ccc(Cl)cc2)C(C)(C)c2ccccc21,2458
COCCNC(=S)N/N=C/c1ccc(-c2ccc([N+](=O)[O-])cc2)o1,3034
O=[N+]([O-])c1ccc(N/N=C/c2cn(Cc3ccc(F)cc3)c3ccccc23)nc1,2490
Cc1ccc(CNc2ccc3c(c2)OCO3)c(C)c1,2814
O=C(/C=C/c1cn(CC(O)CN2CCCCCC2)c2ccccc12)c1cccs1 (stereo not shown),1520
CC(=O)C1=C(C)NC(SCC(=O)c2ccc(Cl)c(Cl)c2)=C(C#N)C1c1ccco1 (stereo not shown),1621
CCNc1ccc2noc3c2c1C(=O)c1ccccc1-3,2885
CCOC(=O)Cn1c(=O)c(-c2cc(Br)ccc2N)nc2ccccc21,1057
Cn1cc(/C=C2\SC(=S)N(NC(=O)c3ccccc3)C2=O)c2ccccc21,3499
CCOc1cc([N+](=O)[O-])cc2c1C(=O)Nc1ccccc1O2,2878
O=C(/C=C/c1cn(CC(O)CN2CCCCC2)c2ccccc12)c1cccs1 (stereo not shown),1432
CN(C)c1ccc(/C=C2\CCC/C(=C\c3ccccc3)C2=O)cc1,2507
CCCCCCc1cc2cc(-c3nnc(-c4cc(OC)c(OC)c(OC)c4)o3)c(=O)oc2cc1O,2771
CCCN(CCC)c1ccc(/C=C/c2ccc3cc(OCC)ccc3n2)cc1,2022
CCCCn1c(O)c(C(=O)/C=C/c2c[nH]c3ccccc23)c(=O)[nH]c1=O,3016
O=[N+]([O-])c1ccc(-c2ccc(/C=N/Nc3nc(NCc4ccccc4)nc(N4CCOCC4)n3)o2)cc1,257
CCCCN(C)CC(O)Cn1cc(/C=C/C(=O)c2cccs2)c2ccccc21 (stereo not shown),1304
O=[N+]([O-])c1ccc(-c2ccc(/C=N/Nc3nc(N4CCCCC4)nc(N4CCCCC4)n3)o2)cc1,2980
CSc1nsc(/C=C/Nc2ccc(C)cc2)c1C#N,2955
C=CCSc1nnc(C)c(/C=C/Nc2ccc(Cl)cc2)n1,3203
COc1cc(N=Nc2cccc(S(N)(=O)=O)c2)c2ccccc2c1N,1031
Nc1c(C(=O)N/N=C/c2cccnc2)oc2nc(-c3ccccc3)cc(-c3ccco3)c12,2845

The first 2 entries again:

* CC1CC(C)(C)Nc2ccc(N=O)cc21 (stereo not shown) | cell count 321 cells
* CCOC(=O)C1=C(C)NC(=O)NC1c1ccc(N2CCC(c3ccccc3)=N2)cc1 (stereo not shown) | cell count 2409 cells

The results are deposited in PubChem (AID2124; Sanford-Burnham Center for Chemical Genomics, 2009).